## Screening data, single-dose tests

Measurements from “University of Dundee, Small-Polar-MMV Screening Library” (2021), ChEMBL document CHEMBL3988442.

A: 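Whole-parasite assay of Trypanosoma brucei over 72 hours; the read-out is not stated. Tested at 30 µM. Direction is inferred from retests: higher values go with stronger inhibition. Values scatter widely below zero; nearly all retest evidence comes from the higher of the two concentrations used. Of about 64,000 compounds tested this way, about 940 (1.5%) reached 50% or more in at least one test.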
B: 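Assay of Toxoplasma gondii numbers, read through their beta-galactosidase reporter with a colour substrate. Compounds at 10 µM. The record gives no direction; the compounds picked for IC50 retests had high values, so higher reads as fewer parasites. About 67,000 compounds were tested under these conditions; 0.38% (about 260) showed 50% or more at least once.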
C: 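Cell assay of Leishmania donovani living inside macrophages; the read-out is not stated. Compounds at 30 µM. The record gives no direction; compounds that gave an IC50 in retests scored well above the rest, so higher reads as stronger inhibition. Of about 69,000 compounds tested this way, about 1,000 (1.5%) reached 50% or more in at least one test.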

The filed quantity is “Percent Effect” (%).
The record does not define 0% and 100%; most values in the screen are far below 50% and negative numbers occur (in some assays of this library far below -100).
This is an unselected part of the compounds tested.

With CC(C)c1ccc(O)c(C(=O)NCc2nncn2C)c1 the screen gave A: -58.81%; B: 13.41%; C: 1.825%.
With Cc1noc(C)c1CN1CCc2nn(C(C)C)c(=O)cc2C1 the screen gave A: -4.734%; B: -0.1883%; C: -9.352%.
With COc1cc(C(C)=O)ccc1OCC(=O)N(CC(C)C#N)C1CC1 (centres undefined) the screen gave A: -49.2%; B: -3.261%; C: 29.53%.
With Cc1ccc(C(=O)N2CCC3(CCC(=O)N(CC(C)O)C3)CC2)c(O)c1 (centres undefined) the screen gave A: -21.68%; B: -20.5%; C: -1.888%.
With O=C(O)C(F)(F)F.[H][C@@]12CC(=O)N(CC(C)C)[C@@]1([H])CCN2Cc1cccc(C#N)c1 the screen gave A: -148%; B: -3.283%; C: 2.566%.
With O=S(=O)(NC1CCCOC1)c1ccc(C(F)(F)F)nc1 (centres undefined) the screen gave A: -75.29%; B: -5.811%; C: 10.71%.
With CNc1cc(N2CCCC2CNCc2ccc(C)o2)ncn1 (centres undefined) the screen gave A: -28.56%; B: 19.48%; C: -1.483%.
With CC/C=C(\C)CN1CCC(CNC(=O)c2ccc(=O)[nH]c2)CC1 the screen gave A: -1.847%; B: -12.86%; C: 29.43%.
With CO[C@@H]1CCN(S(=O)(=O)c2cccs2)[C@H]1Cc1cccnc1.O=C(O)C(F)(F)F the screen gave A: -22.46%; B: 11.39%; C: 35.84%.
With CC(C)(C)N1CC(C(=O)N2CCN(CCc3ccccc3)CC2)CC1=O (centres undefined) the screen gave A: -12.6%; B: -2.203%; C: 49.69%.
With Cc1nn(C)c(C)c1NC(=O)CN1CCCC1c1noc(C(C)C)n1 (centres undefined) the screen gave A: -39.81%; B: 10.91%; C: -17%.
With Cc1cnn(CCNCC(O)COc2ccc(Cl)cc2)c1 (centres undefined) the screen gave A: 17.82%; C: 32.64%.
With Cc1cc(CN(C)CC2CC(C3CCCCC3)=NO2)no1 (centres undefined) the screen gave A: -31.81%; B: 1.243%; C: 5.057%.
With CCn1c(CN(C)C)nnc1C1CCN(Cc2ccccn2)CC1 the screen gave A: -30.62%; B: -19.95%; C: -28.27%.
With Cc1csc(NC(=O)c2ccc(NC(=O)N3CCOCC3)cc2)n1 the screen gave A: 7.771%; B: 4.241%; C: 69.81%.
With Cc1cn(CC(=O)Nc2cc(C(C)(C)C)nn2C)cn1 the screen gave A: 14.83%; B: -16.58%; C: 8.483%.
With c1cc(-c2noc(CN3CCn4c(nnc4C4CC4)C3)n2)cs1 the screen gave A: 10.14%; B: 8.294%; C: 22.06%.
With CCn1cc2c(n1)C(COCC1CC1)CN(C(=O)c1ccco1)C2 (centres undefined) the screen gave A: -75.24%; B: -6.634%; C: 19.38%.
With CC1c2ncc(COc3cccnc3)n2CCN1Cc1ccco1 (centres undefined) the screen gave A: -3.756%; B: 2.406%; C: 9.481%.
With Cc1cc(NC(=O)CN2CCN(C3CCCC3)C(=O)C2)nn1C the screen gave A: -13.15%; B: 0.9248%; C: 0.3421%.
With CCN(CC)C(CNC(=O)c1ccnc(N(C)C)c1)c1ccsc1 (centres undefined) the screen gave A: -12.6%; B: -10.41%; C: 1.995%.
With CN(C)C(=O)c1nc(CN2CC(Cc3ccccc3)CC2=O)no1 (centres undefined) the screen gave A: -27.04%; B: -0.3567%; C: 14.24%.
With Cn1cccc1C(O)CNC(=O)c1ccc2nsnc2c1 (centres undefined) the screen gave A: -28.13%; B: 13.91%; C: 2.403%.
With Cc1cc(-c2cnc(C3CC3)nc2CN(C)C(=O)c2ccccn2)on1 the screen gave A: -9.953%; B: -3.462%; C: 29.22%.
With N[C@@H]1c2ccccc2C2(CCN(c3ccc(C(F)(F)F)cn3)CC2)[C@H]1O the screen gave A: 4.853%; B: -13.96%; C: -30.65%.
With Cc1cc(C)c(C(=O)Nc2cccc(CN3CCC(CO)CC3)c2)o1 the screen gave A: -50.48%; B: -2.273%; C: 43.68%.
With CSc1ncc(CN2CC(Oc3c(C)cccc3C)C2)cn1 the screen gave A: -1.374%; B: -10.05%; C: -4.564%.
With COc1ccc(NC(=O)N2CCCCC2c2ncc[nH]2)cc1 (centres undefined) the screen gave A: -96.49%; B: -6.082%; C: -2.287%.
With O=C1NCc2ccc(NC(=O)C3CCCN3c3nccs3)cc21 (centres undefined) the screen gave A: 23.55%; B: -7.293%; C: 15.63%.
With COc1ccc(F)cc1C(=O)N1CCC2(CCC(=O)N(C(C)C)C2)CC1 the screen gave A: 3.779%; B: -12.82%; C: 0.9568%.
With Cc1noc(CCNC(=O)NCc2ccc(N3CCCCC3)cc2)n1 the screen gave A: 8.734%; B: -9.863%; C: 24.99%.
With O=C(NS(=O)(=O)c1ccc(C2CCCCC2)cc1)C1COCCO1 (centres undefined) the screen gave A: -55.03%; B: -4.123%; C: -6.098%.
With [H][C@@]12CNC[C@]1([H])CN(C(=O)C1CCC1)C2 the screen gave A: -16.44%; B: 11.72%; C: -2.241%.
With Oc1nc(N2CCCC2)nc2nccc(-c3ccccn3)c12 the screen gave A: -31.53%; B: 10.81%; C: -16.48%.
With O=C(NCCCN1CCOCC1)c1ccc(Cl)cc1Cl the screen gave A: -13.25%; B: 14.53%; C: 9.578%.
With COCCN1CCC2(CC1)CC(N1CCOCC1)c1cc(C)ccc12.O=C(O)C(F)(F)F.O=C(O)C(F)(F)F (centres undefined) the screen gave A: -31.26%; B: 20.43%; C: 13.44%.
With COCc1nc(C2CC2)nn1-c1cc(Cl)ccc1OC the screen gave A: -0.4254%; B: -14.41%; C: 8.128%.
With COCCN1CCCC1(C)c1nc(C)cc(N)n1 (centres undefined) the screen gave C: 18.42%.
With Cc1cccn2cc(C(=O)N3CCCN(CC4CC4)C(C(C)C)C3)nc12 (centres undefined) the screen gave A: -9.4%; B: -10.28%; C: 1.613%.

For reference, 2 entries once more:

O=C(NCCCN1CCOCC1)c1ccc(Cl)cc1Cl gave A: -13.25%; B: 14.53%; C: 9.578%.
Cn1cccc1C(O)CNC(=O)c1ccc2nsnc2c1 (centres undefined) gave A: -28.13%; B: 13.91%; C: 2.403%.